Data taken from publication PMC8983781.
These are yes or no findings as the source states them, for the method shown. In cells and extracts the contact can be indirect. Binding can be weak; no strength is given.

Protein sequences, listed by entry. Tags and fused reporters are not part of them. Lines headed by an entry give the natural chain unless they say otherwise; changes in a name come on top. Residues count along the entry.
UniProt P11686: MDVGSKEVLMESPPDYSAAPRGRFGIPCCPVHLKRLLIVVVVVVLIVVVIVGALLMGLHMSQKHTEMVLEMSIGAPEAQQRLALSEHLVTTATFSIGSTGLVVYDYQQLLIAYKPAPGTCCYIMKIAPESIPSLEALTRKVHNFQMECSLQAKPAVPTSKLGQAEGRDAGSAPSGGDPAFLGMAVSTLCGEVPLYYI
UniProt Q9QYI6, residues 24-222: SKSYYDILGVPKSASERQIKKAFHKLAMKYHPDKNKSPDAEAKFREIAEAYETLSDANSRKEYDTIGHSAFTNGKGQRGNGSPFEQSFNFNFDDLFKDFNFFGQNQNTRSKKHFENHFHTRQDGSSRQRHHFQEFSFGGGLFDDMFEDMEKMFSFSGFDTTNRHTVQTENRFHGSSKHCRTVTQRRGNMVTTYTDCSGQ

B1: GRP170 (human) (protein, UniProt Q9Y4L1 33-999)
chain: LAVMSVDLGSESMKVAIVKPGVPMEIVLNKESRRKTPVIVTLKENERFFGDSAASMAIKNPKATLRYFQHLLGKQADNPHVALYQARFPEHELTFDPQRQTVHFQISSQLQFSPEEVLGMVLNYSRSLAEDFAEQPIKDAVITVPVFFNQAERRAVLQAARMAGLKVLQLINDNTATALSYGVFRRKDINTTAQNIMFYDMGSGSTVCTIVTYQMVKTKEAGMQPQLQIRGVGFDRTLGGLEMELRLRERLAGLFNEQRKGQRAKDVRENPRAMAKLLREANRLKTVLSANADHMAQIEGLMDDVDFKAKVTRVEFEELCADLFERVPGPVQQALQSAEMSLDEIEQVILVGGATRVPRVQEVLLKAVGKEELGKNINADEAAAMGAVYQAAALSKAFKVKPFVVRDAVVYPILVEFTREVEEEPGIHSLKHNKRVLFSRMGPYPQRKVITFNRYSHDFNFHINYGDLGFLGPEDLRVFGSQNLTTVKLKGVGDSFKKYPDYESKGIKAHFNLDESGVLSLDRVESVFETLVEDSAEEESTLTKLGNTISSLFGGGTTPDAKENGTDTVQEEEESPAEGSKDEPGEQVELKEEAEAPVEDGSQPPPPEPKGDATPEGEKATEKENGDKSEAQKPSEKAEAGPEGVAPAPEGEKKQKPARKRRMVEEIGVELVVLDLPDLPEDKLAQSVQKLQDLTLRDLEKQEREKAANSLEAFIFETQDKLYQPEYQEVSTEEQREEISGKLSAASTWLEDEGVGATTVMLKEKLAELRKLCQGLFFRVEERKKWPERLSALDNLLNHSSMFLKGARLIPEMDQIFTEVEMTTLEKVINETWAWKNATLAEQAKLPATEKPVLLSKDIEAKMMALDREVQYLLNKAKFTKPRPRPKDKNGTRAEPPLNASASDQGEKVIPPAGQTEDAEPISEPEKVETGSEPGDTEPLELGGPGAEPEQKEQSTGQKRPLKNDEL
B2: ERdj5 (mouse) (protein, UniProt Q9DC23 33-793)
chain: DQNFYSLLGVSKTASSREIRQAFKKLALKLHPDKNPNNPNAHGDFLKINRAYEVLKDEDLRKKYDKYGEKGLEDNQGGQYESWSYYRYDFGIYDDDPEIITLERREFDAAVNSGELWFVNFYSPGCSHCHDLAPTWREFAKEVDGLLRIGAVNCGDDRMLCRMKGVNSYPSLFIFRSGMAAVKYNGDRSKESLVAFAMQHVRSTVTELSTGNFVNAIETAFAAGVGWLITFCSKGEDCLTSQTRLRLSGMLDGLVNVGWVDCDAQDSLCKSLDTTASTTAYFPPGATLNDREKSSVLFLNSLDAKEIYMEIIHNLPDFELLSANQLEDRLAHHRWLVFFHFGKNENANDPELKKLKTLLKNEHIQVGRFDCSSAPGICSDLYVFQPCLAVFKGQGTKEYEIHHGKKILYDILAFAKESVNSHVTTLGPQNFPASDKEPWLVDFFAPWCPPCRALLPELRKASTLLYGQLKVGTLDCTIHEGLCNMYNIQAYPTTVVFNQSSIHEYEGHHSAEQILEFIEDLRNPSVVSLTPSTFNELVKQRKHDEVWMVDFYSPWCHPCQVLMPEWKRMARTLTGLINVGSVDCQQYHSFCTQENVQRYPEIRFYPQKSSKAYQYHSYNGWNRDAYSLRSWGLGFLPQASIDLTPQTFNEKVLQGKTHWVVDFYAPWCGPCQNFAPEFELLARMIKGKVRAGKVDCQAYPQTCQKAGIKAYPSVKLYQYERAKKSIWEEQINSRDAKTIAALIYGKLETLQSQVKRNKDEL

How the values were obtained:
[1] = target: SP-C L188Q (human) (UniProt P11686); test: co-IP; 293T cells co-transfected with an SP-C construct and one co-chaperone (BiP co-transfected in the GRP170 experiments; 20 mM NEM in wash and lysis for ERdj5); NP-40 lysates 24 h after transfection, immunoprecipitated with anti-SP-C overnight at 4 °C, Protein A agarose, washed with buffer containing 0.4 M NaCl; co-chaperones detected by western blot; in Fig. 4 signals normalised to SP-C and expressed as percent of parental L188Q
[2] = target: SP-C L188Q with the site 3 mutation (human) (UniProt P11686); test: as above
[3] = target: SP-C Δ exon 4 (human) (UniProt P11686); test: as above
[4] = target: 3HA-tagged SP-C L188Q (human) (UniProt P11686); test: co-IP; 293T cells co-expressing 3HA-tagged L188Q and untagged wild-type SP-C, 35S pulse-labelled for 30 min; lysates immunoprecipitated with anti-HA; reducing SDS-PAGE and phosphorimaging
[5] = substrate: SP-C L188Q (human) (UniProt P11686); test: co-IP; 293T cells co-transfected with an SP-C construct and one co-chaperone (BiP co-transfected in the GRP170 experiments; 20 mM NEM in wash and lysis for ERdj5); NP-40 lysates 24 h after transfection, immunoprecipitated with anti-SP-C overnight at 4 °C, Protein A agarose, washed with buffer containing 0.4 M NaCl; co-chaperones detected by western blot; in Fig. 4 signals normalised to SP-C and expressed as percent …
[6] = substrate: SP-C L188Q with the site 3 mutation (human) (UniProt P11686); test: as above
[7] = substrate: SP-C Δ exon 4 (human) (UniProt P11686); test: as above

Molecule	binding [1]	binding [2]	binding [3]	binding [4]	binding [5]	binding [6]	binding [7]
ERdj4-3HA (mouse) (from UniProt Q9QYI6 24-222)	binds	binds	binds	–	–	–	–
wild-type surfactant protein C (SP-C) proprotein, untagged (from UniProt P11686)	–	–	–	binds	–	–	–
B1	–	–	–	–	binds	binds	binds
B2	–	–	–	–	binds	binds	binds
